# Data published in patent US6444683B2, “17-azolyl steroids useful as androgen synthesis inhibitors” (University of Maryland at Baltimore, priority 1997, dated 2002).
# Some entries share one result that the patent states for a list of compounds. Some ranges recur; such a range may be that of the whole group of compounds.
# Target: T1, human prostate 5α-reductase (Homo sapiens, UniProt P31213)
# T1 construct: The enzymatic reactions were initiated by addition of human BPH microsomes; from tissue; host or cells: human benign prostatic hyperplasia (BPH) tissue, microsomal fraction
# T1 sequence (P31213 1-254): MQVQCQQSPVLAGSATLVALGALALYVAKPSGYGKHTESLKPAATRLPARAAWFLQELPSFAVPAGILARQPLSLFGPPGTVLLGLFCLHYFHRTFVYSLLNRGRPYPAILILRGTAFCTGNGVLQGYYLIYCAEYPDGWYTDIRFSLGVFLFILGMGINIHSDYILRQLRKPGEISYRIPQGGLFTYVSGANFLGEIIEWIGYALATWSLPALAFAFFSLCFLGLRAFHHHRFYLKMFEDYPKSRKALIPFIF
# Assay: Inhibition of human prostate 5α-reductase in BPH microsomes (conversion of [7-3H]-testosterone to DHT)
# Format: biochemical
# Details: from IC50 values
# Experimental: […] The ethanol was evaporated to dryness under a gentle stream of air. […] The enzymatic reactions were initiated by addition of human BPH microsomes (about 180 μg of microsomal protein in 500 μl of phosphate buffer) in a total volume of 1.0 ml, and the incubations were performed for 10 min under oxygen in a shaking water bath at 37° C. The incubations were terminated by placing the sample tubes on ice and the addition of ether. Also, [^14C]-DHT (3000 dpm) and cold DHT (50 μg) were added to each tube as an internal standard and visualization marker, respectively. The steroids were extracted with ether and separated by TLC (chloroform:ether, 80:20) and visualized by exposure to iodine vapor. The extracts were analyzed for ^3H and ^14C using a liquid scintillation counter. The percentage conversion of [7-^3H]-testosterone to [^3H]-dihydrotestosterone was calculated and used to determine 5α-reductase activity.
smiles,measurement,value
"C[C@]12CCC(=O)C=C1CC[C@@H]1[C@@H]2CC[C@]2(C)C(n3ccnc3)=CC[C@@H]12 [Compound 12, 17-(1H-imidazol-1-yl)androsta-4,16-diene-3-one]",Times less potent than finasteride as 5α-reductase inhibitor,4-6 times
"C[C@]12CCC(=O)C=C1CC[C@@H]1[C@@H]2CC[C@]2(C)C(n3ccnn3)=CC[C@@H]12 [Compound 21, 17-(1H-1,2,3-triazol-1-yl)androsta-4,16-diene-3-one]",Times less potent than finasteride as 5α-reductase inhibitor,4-6 times
